{
  "source": "paper PMC3760765",
  "about": "“A Meiosis-Specific Form of the APC/C Promotes the Oocyte-to-Embryo Transition by Decreasing Levels of the Polo Kinase Inhibitor Matrimony” (PLoS Biology, 2013)",
  "binders": {"B1": {"name": "Matrimony (Mtrm), endogenous in ovaries (protein, UniProt Q23973 1-217)", "chain": "MENSRTPTNKTKITLNRTPTLKERRWNTLKVNTSNVRCSTPIFGNFRSPNLSPIENMGTKGKSPVSPMRFATFKKVPTKVHPKQQQQQQHQHCHRTQLKPPPFVLPKPQEEIIEPEREIKSCSSPDTCSDDSNMETSLALESRRRSIKASNHSYVVNHAANVEQILMHMGLENYVTNFEEAHIDLVELASLERADLVKIGLNTDEDCNRIMDVLHTL"}},
  "target": "T1, myc-tagged Cort expressed in ovaries (UASp-myc-cort transgene) (Drosophila melanogaster) (UniProt Q960N3)",
  "T1 sequence": "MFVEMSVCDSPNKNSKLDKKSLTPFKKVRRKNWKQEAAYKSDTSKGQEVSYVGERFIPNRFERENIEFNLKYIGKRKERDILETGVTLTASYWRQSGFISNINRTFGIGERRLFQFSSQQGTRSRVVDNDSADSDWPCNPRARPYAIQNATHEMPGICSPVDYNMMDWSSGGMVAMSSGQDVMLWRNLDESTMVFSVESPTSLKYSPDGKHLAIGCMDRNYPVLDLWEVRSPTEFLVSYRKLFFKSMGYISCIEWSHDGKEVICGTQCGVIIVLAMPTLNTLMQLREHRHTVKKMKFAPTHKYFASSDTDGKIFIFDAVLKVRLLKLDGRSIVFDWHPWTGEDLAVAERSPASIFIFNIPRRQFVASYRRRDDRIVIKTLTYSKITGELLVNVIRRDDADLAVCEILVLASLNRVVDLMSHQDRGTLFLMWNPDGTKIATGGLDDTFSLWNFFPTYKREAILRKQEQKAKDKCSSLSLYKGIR",
  "experiment": "affinity purification with mass spectrometry; myc-Cort immunoprecipitated with anti-Myc 9E10 on Protein G magnetic beads from whole ovary extract, 3 h at 4°C; washes incl. IP buffer + 0.5 M NaCl; bands cut from silver-stained gel, LC-MS/MS; controls random mouse IgG or OrR ovaries",
  "note": "No constants are given. Whether binding was seen depends on the method and setting. Binding seen in cells or lysates may run through a third protein. Here binding means that the protein was enriched with, or labelled near, the bait; the list need not be complete. Where a sequence is shown, tags or fusion partners need not be part of it.",
  "data": [
    {"binder": "B1", "values": [
      {"measurement": "binding", "value": "binds"}
    ]}
  ]
}
